Measurements from paper PMC8885739.
These are yes or no findings as the source states them, for the method shown. Binding seen in cells or lysates may run through a third protein. A result given as binding can be weak or reduced; the word gives no strength.

Protein sequences, listed by entry. Tags and fused reporters are not part of them. Lines headed by an entry give the natural chain unless they say otherwise; changes in a name come on top.
UniProt Q8C5Y2: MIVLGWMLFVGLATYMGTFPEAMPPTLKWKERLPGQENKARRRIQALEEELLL
UniProt P21796: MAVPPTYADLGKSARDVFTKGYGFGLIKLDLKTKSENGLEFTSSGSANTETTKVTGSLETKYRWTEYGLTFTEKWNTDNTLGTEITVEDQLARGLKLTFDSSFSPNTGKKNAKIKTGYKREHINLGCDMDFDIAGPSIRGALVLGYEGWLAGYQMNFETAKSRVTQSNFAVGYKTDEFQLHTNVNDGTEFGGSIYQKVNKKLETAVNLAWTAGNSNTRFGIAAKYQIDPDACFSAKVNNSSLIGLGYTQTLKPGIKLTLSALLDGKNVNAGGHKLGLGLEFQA

Target: Kastor-(C)FLAG (mouse) (UniProt Q8C5Y2)
Test: co-IP; lysates of HEK293T cells transiently expressing Kastor-(C)FLAG or Polluks-(C)FLAG; immunoprecipitation with anti-FLAG M2 affinity gel, washes with 0.1% Triton X-100, elution with FLAG peptide; immunoblot for VDAC isoforms

Substance: VDAC1 (voltage-dependent anion channel 1), endogenous in HEK293T cells (from UniProt P21796 1-283)
- binding: binds
